# Data as given in PubChem BioAssay AID1259261 (Sanger Institute, 2017).
# Screen: 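siRNA screen across the kinome for kinases that are essential and partners synergising with drugs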 (primary screen)
# Cell system: HCC2998 human colorectal cancer cells
# Reagents: siRNA pool against human genes
# Challenge: anchor drugs BYL719 1 µM, cetuximab 5 µg/ml or trametinib 10 nM, each compared with DMSO vehicle
# Measurement: 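Cell viability relative to non-targeting siRNA, averaged over replicates, with robust z-score for siRNA alone and synergy scores with each anchor drug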
# Reading the numbers: viability z-score, knock-down alone: higher = more viable cells than controls; viability fraction, knock-down alone: higher = more viable cells; synergy score with BYL719: higher = stronger combined killing with BYL719; synergy score with trametinib: higher = stronger combined killing with trametinib; synergy score with cetuximab: higher = stronger combined killing with cetuximab
# Call rule: 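a knock-down is called essential if its robust z-score without drug is under -3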
# Meaning of the calls: active = essential; inactive = no change
# The deposit covers 794 reagents; shown is a part drawn at random. Of all reagents, 10 (1.3%) are marked active. 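Calls reflect knock-down alone without drug; synergy scores with BYL719, cetuximab or trametinib do not affect calls.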 A number with no mark means an inactive call. Viability is capped at 1. Not stated in the record: the amount of reagent, the time to read-out.
target,"viability z-score, knock-down alone","viability fraction, knock-down alone",synergy score with BYL719,synergy score with trametinib,synergy score with cetuximab
PRKAR2A,-0.201,0.824,-0.0913,0.0198,0.0257
"PFKFB3 (6-phosphofructo-2-kinase/fructose-2,6-biphosphatase 3)",-1.92,0.609,-0.0715,0.11,-0.022
CLK4 (CDC like kinase 4),0.697,0.936,0.0328,0.0143,0.0171
MYH10 (myosin heavy chain 10),0.362,0.894,0.00132,0.105,-0.0468
TBX3 (T-box transcription factor 3),0.247,0.88,0.0101,0.101,-0.0276
HIPK2 (homeodomain interacting protein kinase 2),-0.55,0.78,-0.134,-0.0243,-0.00659
AK5 (adenylate kinase 5),-0.79,0.75,-0.0511,0.0625,-0.0275
TRPM7,-0.583,0.776,-0.0896,0.0185,-0.09
TGFBR3 (transforming growth factor beta receptor 3),1.21,1,-0.076,-0.0755,-0.0432
CDK5 (cyclin dependent kinase 5),0.84,0.954,0.0366,0.0394,0.0364
FN3KRP (fructosamine 3 kinase related protein),-0.327,0.808,0.0465,0.167,-0.197
CDKN2B (cyclin dependent kinase inhibitor 2B),0.5,0.912,-0.139,-0.0161,-0.128
TSSK3 (testis specific serine kinase 3),-0.0175,0.847,-0.0142,0.0274,-0.0853
ETNK2 (ethanolamine kinase 2),0.181,0.872,-0.0968,0.00726,0.0123
MINK1 (misshapen like kinase 1),-0.389,0.8,0.0186,0.11,-0.0759
EIF2AK4 (eukaryotic translation initiation factor 2 alpha kinase 4),1.21,1,-0.0584,0.0605,-0.0206
TAOK3 (TAO kinase 3),-1.28,0.688,-0.0336,-0.103,-0.093
ULK1 (unc-51 like autophagy activating kinase 1),1.07,0.983,0.0929,0.17,0.0435
MAPK7 (mitogen-activated protein kinase 7),0.426,0.902,0.0507,-0.0487,-0.037
BMPR1A (bone morphogenetic protein receptor type 1A),-1.08,0.714,0.0209,0.0879,-0.00481
PRKAA2 (protein kinase AMP-activated catalytic subunit alpha 2),0.591,0.923,-0.0321,0.107,0.00515
CDC42BPG (CDC42 binding protein kinase gamma),0.517,0.914,-0.0713,-0.0349,-0.126
RPS6KA2 (ribosomal protein S6 kinase A2),-3.43 (active),0.419,-0.0357,0.0962,0.048
PKIA (cAMP-dependent protein kinase inhibitor alpha),-0.279,0.814,-0.1,-0.104,-0.0305
SGK3 (serum/glucocorticoid regulated kinase family member 3),-0.229,0.82,-0.125,-0.0182,0.00283
ALDH18A1 (aldehyde dehydrogenase 18 family member A1),0.885,0.96,0.015,0.109,0.000148
PBK (PDZ binding kinase),-0.0897,0.838,-0.0691,-0.0327,-0.000932
TBK1 (TANK binding kinase 1),-0.0851,0.838,-0.0374,0.159,-0.0498
NAGK (N-acetylglucosamine kinase),-1.56,0.654,-0.102,-0.0505,-0.0252
AURKA (aurora kinase A),-1.82,0.621,0.00878,0.0245,0.0382
MAP2K2 (mitogen-activated protein kinase kinase 2),1.21,1,0.0344,-0.0388,-0.0432
STK11 (serine/threonine kinase 11),-1.2,0.698,0.0295,-0.049,-0.148
NUAK2 (NUAK family kinase 2),-0.314,0.809,-0.0377,-0.0105,-0.0946
ALPK3 (alpha kinase 3),0.616,0.926,-0.12,-0.0712,-0.0448
OXSR1 (oxidative stress responsive kinase 1),-0.18,0.826,-0.136,0.0126,-0.00943
CSF1R (colony stimulating factor 1 receptor),-0.215,0.822,0.032,0.0912,0.084
SRPK3 (SRSF protein kinase 3),1.21,1,-0.0176,0.105,-0.0432
SCYL1 (SCY1 like pseudokinase 1),1.21,1,-0.109,-0.00852,-0.0432
PNCK (pregnancy up-regulated nonubiquitous CaM kinase),0.797,0.949,-0.155,0.00153,-0.0494
PRKACB (protein kinase cAMP-activated catalytic subunit beta),0.217,0.876,-0.00108,-0.0229,0.000211
MAP3K13 (mitogen-activated protein kinase kinase kinase 13),-0.0993,0.836,-0.0843,-0.0695,-0.0718
"PIM1 (Pim-1 proto-oncogene, serine/threonine kinase)",-0.676,0.764,-0.0147,0.0839,-0.163
ITSN1 (intersectin 1),-0.45,0.792,-0.0932,-0.00403,0.0671
ETNK1 (ethanolamine kinase 1),-1.5,0.661,-0.0644,0.0384,0.00398
STK38 (serine/threonine kinase 38),-0.657,0.766,0.0152,0.036,-0.000537
GALK1 (galactokinase 1),-1.39,0.674,-0.137,-0.084,-0.0409
TAB1 (TGF-beta activated kinase 1 (MAP3K7) binding protein 1),1.21,1,-0.0743,-0.047,-0.0432
TAOK1 (TAO kinase 1),-0.879,0.739,-0.0515,-0.0264,-0.00298
TESK1 (testis associated actin remodelling kinase 1),-0.731,0.757,-0.2,0.023,-0.0565
CALM1 (calmodulin 1),0.0686,0.857,-0.027,0.109,-0.0545
